A short description of the assay: qHTS Assay for Lipid Storage Modulators in Drosophila S3 Cells.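 For cell number change: cells counted by Cell Tracker Red CMTPX staining in the red channel.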 As to conditions: BODIPY lipid droplet fluorescence, 18-24 h; for cell number change: measured here: cell count max response, cells fed with added oleic acid. Put shortly: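 Drosophila S3 cells loaded with oleic acid (400 uM, as added) and compounds at several concentrations; lipid droplets imaged by 488-nm laser-scanning cytometry, 500–530 nm intensity and object ratio to cell channel. Percent activity normalized to 20 uM Triacsin C.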
Background: Quantitative high-throughput screening tests each substance at several concentrations.

[1] abbreviates: measured here: cell number channel AC50, cells fed with added oleic acid.
[2] abbreviates: measured here: lipid fluorescence (Fed channel) AC50, cells fed with added oleic acid.

The structures appear in SMILES notation. The list shows a part of the results. Further columns of the screen follow, without active or inactive calls. Compounds called inactive in the main read-out are mostly missing here. Potencies come from curve fits of mixed quality, noted in brackets.

In the case of `CCCCCC[N+](=O)[O-]`, the cell number change worked out at 1.03%. Moreover, the AC50 under setting [1] was 0.92 µM [falling, single point]. Also, the AC50 under setting [2] is 1.16 µM [falling, single point].
For the compound `CN1CCN(Cc2cc(=O)n3ccsc3n2)CC1`, the cell number change came to 32.4%.
Take `COC(=O)C1=C(c2cccc(OCc3ccccc3)c2)C[C@@H]2CC[C@H]1N2C(=O)NCCc1ccc(F)cc1`: the cell number change is -7.8%. Also, the AC50 under setting [1] was 2.91 µM [falling, single point].
As for `c1ccc(P(c2ccccc2)c2ccccn2)cc1`, the cell number change was -8%. Under setting [2], the AC50 is 0.082 µM [falling, full curve, poor fit].
With `O=c1[nH]c(=O)n(CCC2=CCCCC2)c(O)c1C=Nc1cccc(F)c1`, the cell number change was -34.8%. Also, the AC50 under setting [1] is 0.731 µM [falling, full curve, poor fit].
`Cc1cc(OCC(=O)Nc2cc(C)nn2-c2ccccn2)c2c3c(c(=O)oc2c1)CCC3`: the cell number change is 30.1%. Also, under setting [1], the AC50 was 0.366 µM [rising, full curve]. Moreover, the AC50 under setting [2] was 0.92 µM [rising, partial curve].
Consider `CCc1ccc(N2C(=O)NC(=O)C(Cc3ccc(OC)cc3OC)C2=O)cc1` (centres undefined), for which, under setting [2], the AC50 is 0.326 µM [falling, partial curve, poor fit].
Turning to `Cc1ccc(C(=O)N[C@@H](C)CN2C3=NC[C@H](Cc4ccccc4)N3C[C@H]2Cc2ccc(O)cc2)cc1Br`, the cell number change was -67.6%. The AC50 under setting [1] was 32.6 µM [falling, single point]. Moreover, the AC50 under setting [2] was 5.8 µM [falling, partial curve].
Regarding `CCCCNC(=O)c1c(N)n(Cc2ccc3c(c2)OCO3)c2nc3ccccc3nc12`, the cell number change turned out to be 19.7%. The AC50 under setting [1] was 0.366 µM [rising, full curve, poor fit].
Regarding `O=C1CC(=O)N(c2ccc(Cl)cc2)C(=O)N1`, the cell number change came to 16.8%. The AC50 under setting [2] was 29.1 µM [rising, single point].
For `CCC(C(=O)N1C[C@H]2C[C@@H](C1)c1cccc(=O)n1C2)c1ccccc1` (some centres undefined), the cell number change came to 9.45%. Moreover, the AC50 under setting [2] is 25.9 µM [rising, single point].
Take `COc1ccc(NC(=O)N2CCC3(CC2)OCCO3)c(OC)c1`: the cell number change was -34.4%. The half-maximal activity concentration (AC50) under setting [1] was 0.651 µM [falling, full curve, poor fit].
In the case of `COCCNC(=O)CN1C(=O)CN=C(c2ccccc2)c2ccccc21`, the cell number change is 19.6%. Also, under setting [2], the AC50 was 1.46 µM [falling, partial curve, poor fit].
`CCCC(C)n1[nH]c(=O)c2c1NC(=O)CSC2c1ccc(OC)c(OC)c1` (centres undefined): the cell number change was determined as 7.21%. For the same compound, the AC50 under setting [2] was 32.6 µM [rising, single point].
For the compound `Cc1c2cnn(CC(=O)N3CCC4(CC3)OCCO4)c(=O)c2c(C)n1Cc1ccc(F)cc1`, the cell number change was -2.32%. Also, the AC50 under setting [2] is 29.1 µM [rising, single point].
With `O=C(Cc1ccccc1)NC(Oc1ccccc1Cl)C(Cl)(Cl)Cl` (centres undefined), the cell number change turned out to be 5.18%. In addition, under setting [1], the AC50 is 7.31 µM [falling, partial curve]. In addition, the AC50 under setting [2] was 4.61 µM [falling, single point].
Turning to `CC/C(=N\Nc1cccc2ccccc12)c1c(O)[nH]c(=O)[nH]c1=O`, the cell number change was 13.4%. Besides, under setting [1], the AC50 was 1.84 µM [rising, partial curve]. For the same compound, under setting [2], the AC50 is 0.082 µM [rising, full curve, poor fit].
Regarding `Cc1cc(C(=O)CN2CCCC2)c(C)n1-c1ccc(F)cc1`, the half-maximal activity concentration (AC50) under setting [1] was 5.17 µM [rising, partial curve, poor fit].
As to `Cc1cc(C=O)c(C)n1C1CCCCC1`, the cell number change amounted to 3.13%. The concentration at half-maximal activity (AC50) under setting [2] is 0.411 µM [falling, single point].
Regarding `CC1CCC/C=C/C2CC(O)CC2C(O)/C=C/C(=O)O1` (centres undefined), the cell number change was -68.7%. Also, under setting [1], the concentration at half-maximal activity (AC50) is 29.1 µM [falling, single point].
For `O=C(O)c1ccccc1NC(=O)C1C2CCC(O2)C1C(=O)O` (centres undefined), the cell number change amounted to 12.8%. The half-maximal activity concentration (AC50) under setting [2] is 29.1 µM [falling, single point].
`CCOC(=O)C(C)Oc1cc(C)cc2oc(=O)c3c(c12)CCCC3` (centres undefined): the cell number change was 0.797%. Further, under setting [2], the AC50 is 0.164 µM [rising, full curve, poor fit].
With `Cc1c(Oc2cc(NN3CCCCC3)c([N+](=O)[O-])cc2[N+](=O)[O-])cccc1[N+](=O)[O-]`, the cell number change is -14.7%.
The same measure, in the same setting: for `CCC(=NCc1ccc2c(c1)OCO2)c1c(O)n(C)c(=O)n(C)c1=O` the value was -27.5%.
In the case of `CCCC(C)C1(CC)C(=O)NC(=Nc2ccc(F)cc2)NC1=O` (centres undefined), the cell number change was -65.2%. Further, under setting [1], the AC50 was 29.1 µM [falling, single point].
Turning to `Cc1ccc(N2C(=O)NC(=O)/C(=C/C=C/c3ccco3)C2=O)cc1`, the cell number change is -45.6%. The AC50 under setting [1] is 11.6 µM [falling, partial curve]. For the same compound, the AC50 under setting [2] is 9.2 µM [falling, partial curve].
As for `CCN1CCN(Cc2ccc(C)cc2)CC1`, the cell number change is -75.9%. Also, the AC50 under setting [1] was 29.1 µM [falling, partial curve, poor fit]. For the same compound, under setting [2], the AC50 is 0.00461 µM [falling, full curve, poor fit].
Take `CCCCn1c(=O)c(C(=O)Nc2ncccc2C)c(O)c2ccccc21`: the cell number change was determined as 23.7%. Besides, under setting [2], the concentration at half-maximal activity (AC50) was 29.1 µM [rising, single point].
As to `CN(C)C1=C(C#N)C(c2ccccc2)=NP(N(C)C)(N(C)C)=N1`, the cell number change amounted to 10.1%. Moreover, the AC50 under setting [2] is 3.66 µM [rising, partial curve, poor fit].
Regarding `CC1=NN(c2ccccc2)C(=O)/C1=C/c1c(O)[nH]c(=O)[nH]c1=O`, the cell number change is -22.1%.
For `N#CC(C#N)=Cc1ccc(C=C(C#N)C#N)cc1`, the cell number change is -10.3%. For the same compound, the AC50 under setting [2] is 6.51 µM [falling, partial curve].
Turning to `Cc1cc(C)n2nc(SCC(=O)N3CCC4(CC3)OCCO4)nc2n1`, under setting [1], the concentration at half-maximal activity (AC50) was 2.06 µM [falling, partial curve].
With `CC(C)C1(C)N=C(c2nc3ccccc3cc2C(=O)O)NC1=O` (centres undefined), the cell number change was -60.8%. Also, under setting [1], the AC50 was 1.84 µM [falling, full curve]. Under setting [2], the AC50 was 29.1 µM [falling, single point].
For the compound `CCN(CC)c1ccc(CNCCc2ccccc2F)cc1`, the cell number change is -12%. Also, the AC50 under setting [1] was 6.51 µM [falling, single point]. For the same compound, the AC50 under setting [2] was 6.51 µM [falling, single point].
Turning to `CCCN(CCC)C1CCc2ccc(O)cc2C1` (centres undefined), the cell number change was -38.3%. For the same compound, the AC50 under setting [1] was 29.1 µM [falling, single point]. Besides, under setting [2], the AC50 was 5.8 µM [falling, full curve].
For the compound `Oc1cccc(/C=N/NP(=S)(c2ccccc2)c2ccccc2)c1`, the cell number change is -19.2%. Also, the AC50 under setting [2] was 29.1 µM [falling, single point].
For the compound `COc1ccc(-c2csc(NC(=O)COC(=O)Cc3ccccc3)n2)cc1OC`, the cell number change was 116%. The half-maximal activity concentration (AC50) under setting [1] is 20.6 µM [rising, single point]. For the same compound, the AC50 under setting [2] was 1.03 µM [rising, partial curve].
Take `Cc1cc(/C=C2\C(=O)NC(=O)N(c3ccc(F)cc3)C2=O)c(C)n1-c1ccc(C(=O)O)cc1`: the cell number change is -2.24%. In addition, the AC50 under setting [2] was 4.61 µM [falling, full curve, poor fit].
As to `CCSC(=O)N1CCCCCC1`, the cell number change was determined as 3.95%. Besides, under setting [2], the AC50 is 0.00461 µM [rising, full curve, poor fit].
With `COP(=S)(OC)SCN1C(=O)c2ccccc2C1=O`, the cell number change is 31.3%. Moreover, the AC50 under setting [1] is 4.61 µM [rising, partial curve]. The AC50 under setting [2] is 0.103 µM [rising, full curve, poor fit].
For the compound `COC(=O)C1=C(c2ccccc2OCc2ccccc2)C[C@@H]2CC[C@H]1N2C(=O)NCc1ccc(Br)cc1`, the cell number change was -11%. The AC50 under setting [2] was 1.16 µM [falling, single point].
For the compound `COC(=O)C1=C(c2cccc(C#N)c2)C[C@@H]2CC[C@H]1N2C(=O)NCCO`, the cell number change amounted to 2.37%. For the same compound, under setting [2], the AC50 was 0.146 µM [falling, full curve, poor fit].
On to `CC(Cc1ccccc1)N1C(=O)c2ccccc2C1=O` (centres undefined), for which the cell number change was -22.8%. For the same compound, under setting [2], the AC50 was 6.51 µM [falling, partial curve].
As for `CC1=C2[C@H]3OC(=O)[C@@H](C)[C@@H]3CC[C@@]2(C)C=CC1=O`, the cell number change is -21%. For the same compound, the AC50 under setting [2] was 0.731 µM [falling, full curve].
Turning to `O=C1/C(=C\c2cc3c(cc2Cl)OCO3)N2CCC1CC2`, the cell number change was found to be 0.986%. For the same compound, the AC50 under setting [2] was 6.51 µM [falling, single point].
On to `CCOP(=O)(Oc1ccccc1)c1c([N+](=O)[O-])cc(C(F)(F)F)cc1[N+](=O)[O-]` (centres undefined), for which the cell number change was 14.9%.
Take `O=c1c2ccccc2nc(-c2ccccc2Cl)n1-c1cccc(O)c1`: the cell number change was -2.82%. In addition, the AC50 under setting [1] is 0.461 µM [falling, single point].
As to `OC(CNC1CCCCC1)c1ccccc1` (centres undefined), the cell number change was -2.91%. Also, under setting [2], the AC50 was 0.058 µM [falling, full curve, poor fit].
As for `COC(=O)C1=C(c2ccccc2OCc2ccccc2)C[C@@H]2CC[C@H]1N2C(=O)NCc1ccc([N+](=O)[O-])cc1`, the cell number change was -6.14%. Besides, the AC50 under setting [2] is 6.51 µM [falling, single point].
`Cc1cc(NC(=O)CCC(=O)N2CCC3(CC2)OCCO3)no1`: the cell number change was -18.4%. Under setting [1], the AC50 is 0.00366 µM [falling, full curve, poor fit].
As for `COCCCn1c(N)c(C(=O)NCc2ccco2)c2nc3ccccc3nc21`, the cell number change is -48.7%. Besides, the AC50 under setting [1] was 20.6 µM [falling, single point].
`C/C(=N\N(C)c1ccccc1)c1c(O)[nH]c(=O)[nH]c1=O`: the cell number change was -40.7%. Besides, the AC50 under setting [1] is 32.6 µM [falling, single point]. Besides, under setting [2], the AC50 was 23.1 µM [falling, partial curve, poor fit].
Take `Cc1cc(C(=O)OCC(=O)Nc2ccccc2F)c(C)n1C1CC1`: the cell number change is -15.3%.
For the compound `C[C@H]1CC[C@@H]2[C@@H](C)[C@H]3[C@H](C[C@H]4[C@@H]5CC=C6C[C@@H](O[C@@H]7O[C@H](CO)[C@H](O)[C@H](O[C@@H]8O[C@H](CO)[C@@H](O)[C@H](O)[C@H]8O)[C@H]7O[C@@H]7O[C@@H](C)[C@H](O)[C@@H](O)[C@H]7O)CC[C@]6(C)[C@H]5CC[C@]34C)N2C1`, the cell number change was -39.4%. Moreover, the AC50 under setting [1] was 29.1 µM [falling, single point]. Under setting [2], the AC50 was 25.9 µM [falling, single point].
`O=C1NC(=O)C(=Cc2cn(CCOc3ccc4c(c3)OCO4)c3ccccc23)C(=O)N1`: the cell number change is 19.6%.

One may read the AC50 as the midpoint of the concentration-response curve, whichever way the signal moves. A high value points to activity only at high concentration.

Values taken from PubChem BioAssay AID2685 (National Center for Advancing Translational Sciences (NCATS), 2010).
